Experimental data taken from the supplement of paper PMC11006884.
This is a selection; strong and weak results do not stand in their true shares.

Protein sequences, listed by entry. Tags and fused reporters are not part of them. Lines headed by an entry give the natural chain unless they say otherwise; changes in a name come on top.
UniProt Q9Y508: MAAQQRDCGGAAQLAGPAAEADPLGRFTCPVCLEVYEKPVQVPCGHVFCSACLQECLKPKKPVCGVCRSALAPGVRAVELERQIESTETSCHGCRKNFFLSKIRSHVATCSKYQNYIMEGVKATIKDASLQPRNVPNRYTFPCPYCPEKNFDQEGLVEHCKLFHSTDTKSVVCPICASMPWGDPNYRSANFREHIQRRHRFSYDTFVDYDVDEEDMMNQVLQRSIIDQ
UniProt Q9Y4C2: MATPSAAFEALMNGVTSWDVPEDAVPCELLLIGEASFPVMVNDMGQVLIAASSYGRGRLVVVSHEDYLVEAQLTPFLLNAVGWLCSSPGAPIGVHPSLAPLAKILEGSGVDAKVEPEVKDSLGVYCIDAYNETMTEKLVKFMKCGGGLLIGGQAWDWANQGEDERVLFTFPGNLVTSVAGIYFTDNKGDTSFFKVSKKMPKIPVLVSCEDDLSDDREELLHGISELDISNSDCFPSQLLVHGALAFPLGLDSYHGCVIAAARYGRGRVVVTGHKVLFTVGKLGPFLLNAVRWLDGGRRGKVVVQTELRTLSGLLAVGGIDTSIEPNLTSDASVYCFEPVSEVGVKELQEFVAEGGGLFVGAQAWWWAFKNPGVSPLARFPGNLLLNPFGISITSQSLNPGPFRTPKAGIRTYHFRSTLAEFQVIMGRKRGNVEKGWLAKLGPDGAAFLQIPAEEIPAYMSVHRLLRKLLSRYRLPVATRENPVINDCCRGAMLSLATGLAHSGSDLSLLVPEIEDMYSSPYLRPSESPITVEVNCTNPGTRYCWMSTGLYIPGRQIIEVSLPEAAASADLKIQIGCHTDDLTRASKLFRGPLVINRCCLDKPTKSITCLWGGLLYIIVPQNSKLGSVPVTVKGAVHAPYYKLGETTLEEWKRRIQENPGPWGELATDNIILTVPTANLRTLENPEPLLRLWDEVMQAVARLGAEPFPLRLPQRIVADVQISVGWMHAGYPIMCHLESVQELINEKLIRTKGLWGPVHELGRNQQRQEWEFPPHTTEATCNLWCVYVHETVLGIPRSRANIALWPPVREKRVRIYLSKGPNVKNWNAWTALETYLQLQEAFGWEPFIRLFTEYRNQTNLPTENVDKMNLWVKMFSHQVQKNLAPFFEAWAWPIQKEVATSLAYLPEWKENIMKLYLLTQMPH
UniProt Q9Y4W2: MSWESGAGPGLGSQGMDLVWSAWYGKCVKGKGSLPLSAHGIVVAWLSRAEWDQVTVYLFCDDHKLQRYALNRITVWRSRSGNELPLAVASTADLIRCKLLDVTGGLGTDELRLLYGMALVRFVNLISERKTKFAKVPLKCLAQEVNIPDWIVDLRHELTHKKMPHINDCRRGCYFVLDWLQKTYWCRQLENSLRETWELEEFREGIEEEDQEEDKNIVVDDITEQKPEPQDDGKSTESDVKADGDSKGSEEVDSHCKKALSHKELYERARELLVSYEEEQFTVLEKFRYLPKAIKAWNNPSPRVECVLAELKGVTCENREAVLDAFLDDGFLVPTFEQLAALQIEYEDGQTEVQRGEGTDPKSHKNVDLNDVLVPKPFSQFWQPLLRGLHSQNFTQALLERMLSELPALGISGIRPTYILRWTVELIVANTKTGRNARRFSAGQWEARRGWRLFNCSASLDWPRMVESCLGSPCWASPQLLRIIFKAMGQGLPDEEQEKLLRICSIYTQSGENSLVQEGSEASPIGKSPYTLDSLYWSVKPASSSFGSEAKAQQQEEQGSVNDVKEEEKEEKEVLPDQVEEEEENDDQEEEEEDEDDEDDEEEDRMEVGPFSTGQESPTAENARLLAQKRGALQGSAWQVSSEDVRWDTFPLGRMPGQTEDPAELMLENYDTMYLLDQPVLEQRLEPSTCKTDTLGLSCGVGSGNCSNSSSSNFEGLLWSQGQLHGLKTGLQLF
UniProt Q9Y520: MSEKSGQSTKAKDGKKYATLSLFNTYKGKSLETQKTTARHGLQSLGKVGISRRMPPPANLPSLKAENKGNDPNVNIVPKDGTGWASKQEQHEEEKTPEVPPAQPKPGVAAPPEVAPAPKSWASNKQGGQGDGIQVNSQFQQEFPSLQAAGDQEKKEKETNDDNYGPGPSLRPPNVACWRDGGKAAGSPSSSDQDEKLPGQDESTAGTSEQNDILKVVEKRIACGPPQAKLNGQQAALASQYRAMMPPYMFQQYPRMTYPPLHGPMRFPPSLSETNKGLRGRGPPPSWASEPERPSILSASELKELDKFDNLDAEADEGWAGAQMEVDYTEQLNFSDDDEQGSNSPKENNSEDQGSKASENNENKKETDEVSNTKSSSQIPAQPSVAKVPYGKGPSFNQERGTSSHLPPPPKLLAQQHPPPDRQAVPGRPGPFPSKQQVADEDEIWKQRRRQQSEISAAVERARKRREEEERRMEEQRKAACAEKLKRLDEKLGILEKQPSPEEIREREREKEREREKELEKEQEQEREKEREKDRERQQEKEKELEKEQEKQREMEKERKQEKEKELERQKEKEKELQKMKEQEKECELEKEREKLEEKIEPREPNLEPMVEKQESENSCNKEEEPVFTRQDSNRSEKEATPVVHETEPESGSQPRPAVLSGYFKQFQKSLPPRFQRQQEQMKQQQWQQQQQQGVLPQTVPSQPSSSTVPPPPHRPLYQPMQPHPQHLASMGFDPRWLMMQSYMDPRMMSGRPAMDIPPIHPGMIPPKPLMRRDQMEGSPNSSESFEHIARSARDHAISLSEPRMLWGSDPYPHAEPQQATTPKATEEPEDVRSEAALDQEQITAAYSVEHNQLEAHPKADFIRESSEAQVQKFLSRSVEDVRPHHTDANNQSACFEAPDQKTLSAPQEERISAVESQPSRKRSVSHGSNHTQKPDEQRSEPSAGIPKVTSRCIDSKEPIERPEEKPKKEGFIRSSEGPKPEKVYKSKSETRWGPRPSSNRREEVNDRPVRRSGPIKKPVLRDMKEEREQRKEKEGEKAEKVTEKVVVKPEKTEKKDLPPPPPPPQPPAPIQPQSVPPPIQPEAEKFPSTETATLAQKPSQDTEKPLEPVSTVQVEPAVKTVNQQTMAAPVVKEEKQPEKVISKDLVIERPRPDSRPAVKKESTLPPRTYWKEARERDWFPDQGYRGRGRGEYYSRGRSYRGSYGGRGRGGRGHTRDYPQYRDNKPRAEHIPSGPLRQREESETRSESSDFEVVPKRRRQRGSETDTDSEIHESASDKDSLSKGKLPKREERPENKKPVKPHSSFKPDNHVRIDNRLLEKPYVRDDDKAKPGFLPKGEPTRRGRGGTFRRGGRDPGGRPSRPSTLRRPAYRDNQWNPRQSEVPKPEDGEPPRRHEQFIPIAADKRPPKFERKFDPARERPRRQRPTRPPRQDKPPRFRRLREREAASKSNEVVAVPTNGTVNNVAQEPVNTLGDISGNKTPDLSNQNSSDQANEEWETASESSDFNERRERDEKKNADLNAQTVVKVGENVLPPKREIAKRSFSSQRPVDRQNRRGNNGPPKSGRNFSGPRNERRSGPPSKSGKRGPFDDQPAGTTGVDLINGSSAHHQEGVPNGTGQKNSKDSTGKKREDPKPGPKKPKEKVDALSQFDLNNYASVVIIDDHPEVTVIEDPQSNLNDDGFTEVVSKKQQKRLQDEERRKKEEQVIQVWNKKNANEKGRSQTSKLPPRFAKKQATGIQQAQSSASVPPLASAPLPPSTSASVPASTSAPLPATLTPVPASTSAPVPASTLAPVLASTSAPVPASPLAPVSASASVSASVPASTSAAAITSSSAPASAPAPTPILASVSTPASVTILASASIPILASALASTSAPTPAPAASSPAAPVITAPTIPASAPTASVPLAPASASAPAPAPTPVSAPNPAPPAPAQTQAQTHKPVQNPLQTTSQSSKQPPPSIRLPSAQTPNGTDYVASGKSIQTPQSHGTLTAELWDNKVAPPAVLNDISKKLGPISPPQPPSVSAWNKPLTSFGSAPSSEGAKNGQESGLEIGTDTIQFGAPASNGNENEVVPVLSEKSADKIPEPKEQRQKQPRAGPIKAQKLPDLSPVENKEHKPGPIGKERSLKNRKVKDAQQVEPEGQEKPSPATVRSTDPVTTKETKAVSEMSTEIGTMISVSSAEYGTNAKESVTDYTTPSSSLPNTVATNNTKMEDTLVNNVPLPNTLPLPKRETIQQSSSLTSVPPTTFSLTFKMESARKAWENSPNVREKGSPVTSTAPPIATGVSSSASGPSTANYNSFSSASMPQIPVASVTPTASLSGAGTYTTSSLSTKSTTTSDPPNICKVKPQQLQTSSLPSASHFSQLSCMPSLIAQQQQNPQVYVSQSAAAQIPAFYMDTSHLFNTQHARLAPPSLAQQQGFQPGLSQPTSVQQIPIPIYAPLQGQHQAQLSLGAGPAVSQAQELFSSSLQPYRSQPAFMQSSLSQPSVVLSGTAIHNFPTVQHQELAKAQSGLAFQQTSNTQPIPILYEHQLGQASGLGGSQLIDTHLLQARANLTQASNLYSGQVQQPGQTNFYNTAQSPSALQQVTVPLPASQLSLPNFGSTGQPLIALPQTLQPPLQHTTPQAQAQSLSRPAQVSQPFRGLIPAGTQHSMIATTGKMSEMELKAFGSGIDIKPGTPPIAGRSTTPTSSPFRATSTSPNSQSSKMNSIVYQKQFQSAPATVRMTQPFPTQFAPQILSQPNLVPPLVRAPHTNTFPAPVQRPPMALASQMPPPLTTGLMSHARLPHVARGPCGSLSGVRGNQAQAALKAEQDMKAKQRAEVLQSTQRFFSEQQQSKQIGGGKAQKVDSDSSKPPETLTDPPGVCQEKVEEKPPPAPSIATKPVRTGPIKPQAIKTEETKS
UniProt Q9Y597: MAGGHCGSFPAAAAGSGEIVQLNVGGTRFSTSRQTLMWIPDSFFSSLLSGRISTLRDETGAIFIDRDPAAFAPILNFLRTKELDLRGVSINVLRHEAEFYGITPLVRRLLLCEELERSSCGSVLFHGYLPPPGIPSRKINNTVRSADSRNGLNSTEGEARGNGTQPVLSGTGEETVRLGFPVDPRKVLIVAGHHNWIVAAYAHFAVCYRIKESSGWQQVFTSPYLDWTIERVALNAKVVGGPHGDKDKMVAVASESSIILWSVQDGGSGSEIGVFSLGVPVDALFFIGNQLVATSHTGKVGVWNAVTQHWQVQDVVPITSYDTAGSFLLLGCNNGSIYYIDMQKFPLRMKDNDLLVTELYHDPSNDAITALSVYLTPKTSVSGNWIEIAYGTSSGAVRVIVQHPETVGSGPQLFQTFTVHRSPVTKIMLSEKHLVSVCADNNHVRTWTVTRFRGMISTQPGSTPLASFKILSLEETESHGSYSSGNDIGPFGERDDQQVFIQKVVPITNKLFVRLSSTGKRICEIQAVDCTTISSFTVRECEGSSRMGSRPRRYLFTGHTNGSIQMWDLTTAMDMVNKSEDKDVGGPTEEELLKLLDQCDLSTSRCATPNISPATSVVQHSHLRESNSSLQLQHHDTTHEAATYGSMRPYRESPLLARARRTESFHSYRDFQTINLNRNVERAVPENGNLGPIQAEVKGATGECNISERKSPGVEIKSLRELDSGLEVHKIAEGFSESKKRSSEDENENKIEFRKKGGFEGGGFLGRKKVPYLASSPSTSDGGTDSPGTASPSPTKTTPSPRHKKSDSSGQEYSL
UniProt Q9Y678: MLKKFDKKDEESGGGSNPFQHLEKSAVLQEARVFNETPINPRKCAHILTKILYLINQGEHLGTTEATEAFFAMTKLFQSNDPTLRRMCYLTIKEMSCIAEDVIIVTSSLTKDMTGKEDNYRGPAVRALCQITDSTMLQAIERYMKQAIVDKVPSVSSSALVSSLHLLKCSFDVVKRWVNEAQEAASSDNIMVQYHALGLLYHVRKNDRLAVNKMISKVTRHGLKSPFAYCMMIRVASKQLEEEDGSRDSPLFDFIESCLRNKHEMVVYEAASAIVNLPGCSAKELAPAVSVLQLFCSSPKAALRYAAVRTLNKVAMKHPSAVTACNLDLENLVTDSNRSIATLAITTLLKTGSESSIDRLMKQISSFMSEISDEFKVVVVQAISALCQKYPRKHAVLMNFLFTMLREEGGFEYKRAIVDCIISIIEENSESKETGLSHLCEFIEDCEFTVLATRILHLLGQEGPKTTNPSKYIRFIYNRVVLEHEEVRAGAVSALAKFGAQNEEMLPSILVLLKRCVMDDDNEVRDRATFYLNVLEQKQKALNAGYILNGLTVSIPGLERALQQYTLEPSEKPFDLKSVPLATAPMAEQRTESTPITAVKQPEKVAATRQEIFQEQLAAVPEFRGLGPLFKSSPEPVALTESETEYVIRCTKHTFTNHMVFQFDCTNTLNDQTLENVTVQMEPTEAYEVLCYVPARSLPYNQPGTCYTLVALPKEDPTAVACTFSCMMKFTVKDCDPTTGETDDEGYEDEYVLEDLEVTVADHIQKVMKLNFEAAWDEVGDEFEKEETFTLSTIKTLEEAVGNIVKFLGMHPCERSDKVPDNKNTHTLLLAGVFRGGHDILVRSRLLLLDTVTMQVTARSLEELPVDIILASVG

compound: COC(=O)C#Cc1ccccc1 [methyl 3-phenylpropiolate]; test: log2 ratio of iodoacetamide-alkyne labeling of the cysteine site, DMSO over compound (competition); higher = stronger covalent engagement of the cysteine by the compound, active = 1 or more; conditions: 500 µM; treatment time 1 h; system: HEK293T cell lysate
Method in brief: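 Reporter intensities give each cysteine's log2 competition ratio as the mean of control channels over the mean of compound channels. The samples were HEK293T lysate (2 mg/mL) given vehicle or electrophile (500 µM, 1 h, ambient temperature), then iodoacetamide alkyne (1 h), followed by click coupling to sCIP-TMT reagents, pooling, trypsin digestion overnight at 37 °C, streptavidin enrichment, acid elution, Orbitrap Eclipse LC-MS/MS with FAIMS and FragPipe quantification. Duplicate channels and three replicates were run, and cysteines quantified in only one replicate were discarded.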

Target	log2 ratio of iodoacetamide-alkyne labeling
RNF114 C176 (UniProt Q9Y508)	inactive: -0.246
IVNS1ABP C274 (UniProt Q9Y6Y0)	inactive: 0.419
WASF2 C27 (UniProt Q9Y6W5)	inactive: -0.177
TCAF1 C576 (UniProt Q9Y4C2)	inactive: -0.325
PSAT1 C80 (UniProt Q9Y617)	inactive: 0.183
USP15 C381 (UniProt Q9Y4E8)	inactive: 0.295
LAS1L C690 (UniProt Q9Y4W2)	inactive: 0.684
FHOD1 C650 (UniProt Q9Y613)	inactive: 0.277
TLN1 C956 (UniProt Q9Y490)	inactive: 0.185
UniProt Q9Y520_C223	inactive: 0.239
PPME1 C347 (UniProt Q9Y570)	inactive: 0.177
LAS1L C469 (UniProt Q9Y4W2)	inactive: -0.00835
GTF3C5 C411 (UniProt Q9Y5Q8)	inactive: 0.205
NUBP2 C72 (UniProt Q9Y5Y2)	inactive: 0.921
TCAF1 C144 (UniProt Q9Y4C2)	inactive: 0.315
USP16 C631 (UniProt Q9Y5T5)	inactive: 0.617
UniProt Q9Y520_C2340	inactive: 0.672
TCAF1 C543 (UniProt Q9Y4C2)	inactive: 0.0837
ARFGEF2 C1450 (UniProt Q9Y6D5)	inactive: 0.55
KCTD3 C606 (UniProt Q9Y597)	active: 1.08
IKBKG C347 (UniProt Q9Y6K9)	inactive: 0.397
TLN1 C286 (UniProt Q9Y490)	inactive: 0.447
UniProt Q9Y5P4_C185	inactive: 0.187
LAS1L C140 (UniProt Q9Y4W2)	inactive: 0.848
UniProt Q9Y520_C177	inactive: 0.692
UniProt Q9Y6E0_C375	inactive: 0.0828
UniProt Q9Y678_C325	inactive: 0.253
TSSC4 C99 (UniProt Q9Y5U2)	inactive: 0.0522
LAS1L C699 (UniProt Q9Y4W2)	inactive: 0.838
ZHX2 C738 (UniProt Q9Y6X8)	inactive: 0.426

Taken from the entries so far (8 entries):
Target	log2 ratio of iodoacetamide-alkyne labeling
ARFGEF2 C1450 (UniProt Q9Y6D5)	inactive: 0.55
KCTD3 C606 (UniProt Q9Y597)	active: 1.08
IKBKG C347 (UniProt Q9Y6K9)	inactive: 0.397
TLN1 C286 (UniProt Q9Y490)	inactive: 0.447
UniProt Q9Y5P4_C185	inactive: 0.187
LAS1L C140 (UniProt Q9Y4W2)	inactive: 0.848
UniProt Q9Y520_C177	inactive: 0.692
UniProt Q9Y6E0_C375	inactive: 0.0828
